Results reported in patent US10322165B2, “TIFA antagonists and their use for treating diseases” (ACADEMIA SINICA, priority 2017, dated 2019).
Some results were stated once for a whole list of compounds, not compound by compound.

B1: F1F2: dominant-negative TIFA fragment: Thr9 segment (F1) plus dimerization-core (F2), Myc-tagged, expressed by retroviral transduction (protein)
chain: MTSFEDADTEETVTCLQMTVYHPGQLQCGIFQSISFNREKLPSSEVVKFGRNSNICHYTFQDKQVSRVQFSLQLFKKFNSSVLSFEIKNMSKKTNLIVDSREL
modifications: left off: small tags and cut ends
notes: dominant-negative TIFA fragment: Thr9 segment (F1) plus dimerization-core (F2), Myc-tagged, expressed by retroviral transduction
B2: F2F3: dominant-negative TIFA fragment: dimerization-core (F2) plus TRAF6/TRAF2 interacting segment (F3), Myc-tagged, expressed by retroviral transduction (protein)
chain: VVKFGRNSNICHYTFQDKQVSRVQFSLQLFKKFNSSVLSFEIKNMSKKTNLIVDSRELGYLNKMDLPYRCMVRFGEYQFLMEKEDGESLEFFETQFILSPRSLLQENNWPPHRPIPEYGTYSLCSSQSSSPTEMDENES
modifications: left off: small tags and cut ends

Test system: AML lines (HL-60, KG-1, THP-1, U937)
Assay: WST-1 based survival test, IC50 of chemo drugs in AML lines
Format: cell-based
Conditions: AML lines stably expressing the DN fragment

Molecule | decrease in IC50 of chemo drugs
B1 | more than 50%
B2 | more than 50%
